Measured values as given in patent US10414713B2, “Fatty acid compound, preparation method therefor and use therefor” (SHANGHAI INSTITUTE OF MATERIA MEDICA, CHINESE ACADEMY OF …, priority 2016, dated 2019).
Some entries share one result that the patent states for a list of compounds.

Columns and labels:
AMPK = assay: Phosphorylation of AMPK α subunit T172 in human HepG2 hepatoma cells (Western blot); assay type: cell-based; conditions: 50 μM, 6 hours, negative control 1‰ DMSO, FIG. 1
ACC = assay: Phosphorylation of ACC S79 in human HepG2 hepatoma cells (Western blot); assay type: cell-based; conditions: 50 μM, 6 hours, negative control 1‰ DMSO, FIG. 2

O=C(O)C1(CCCCCCC=CCCCCCCCC2(C(=O)O)CCCC2)CCCC1 [Compound 8]
promotion of AMPK phosphorylation comparing with the negative control (AMPK): over 4 times
promotion of ACC phosphorylation compared with the negative control (ACC): over 4 times

CCC(C)(CCCCCCC=CCCCCCCCC(C)(CC)C(=O)O)C(=O)O (stereo not drawn) [Compound 20]
promotion of AMPK phosphorylation comparing with the negative control (AMPK): over 4 times
promotion of ACC phosphorylation compared with the negative control (ACC): over 4 times

CC(C)(CCCCCCC=CCCCCCCCC(C)(C)C(=O)O)C(=O)O [Compound 4]
promotion of AMPK phosphorylation comparing with the negative control (AMPK): over 4 times
promotion of ACC phosphorylation compared with the negative control (ACC): over 4 times

O=C(O)C1(CCCCCCC=CCCCCCCCC2(C(=O)O)CCCCC2)CCCCC1 [Compound 22]
promotion of ACC phosphorylation compared with the negative control (ACC): over 4 times

O=C(O)C1(CCCCCC=CCCCCCCC2(C(=O)O)CCCCC2)CCCCC1 [Compound 21]
promotion of ACC phosphorylation compared with the negative control (ACC): over 4 times

1-(5-(6-oxo-7-heterospiro[4.8]tridecane-8-yl)pentyl)cyclopentanecarboxylic acid [Compound 5]
promotion of AMPK phosphorylation comparing with the negative control (AMPK): over 4 times

CCC(C)(CCCCCC=CCCCCCCC(C)(CC)C(=O)O)C(=O)O (stereo not drawn) [Compound 19]
promotion of AMPK phosphorylation comparing with the negative control (AMPK): over 4 times

CC(CCCCCCC=CCCCCCCCC(C)(C(=O)O)c1ccccc1)(C(=O)O)c1ccccc1 (stereo not drawn) [Compound 18]
promotion of AMPK phosphorylation comparing with the negative control (AMPK): over 4 times
promotion of ACC phosphorylation compared with the negative control (ACC): over 4 times
